Read-outs that look alike come from different tables or passages of the source. No constants are given. Whether binding was seen depends on the method and setting. Some results given as binding are weak or reduced against the parent protein; the word gives no strength. For some assays here: Where a sequence is shown, tags or fusion partners need not be part of it.

Chains of the proteins cited; added tags and fusions are not shown.
UniProt Q9N5K2: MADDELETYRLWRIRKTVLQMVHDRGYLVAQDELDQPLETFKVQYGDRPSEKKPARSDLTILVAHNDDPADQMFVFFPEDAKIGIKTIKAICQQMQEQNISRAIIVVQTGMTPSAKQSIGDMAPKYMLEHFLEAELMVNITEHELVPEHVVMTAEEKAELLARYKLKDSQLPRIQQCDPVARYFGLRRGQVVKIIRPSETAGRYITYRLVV
UniProt Q9U1W2: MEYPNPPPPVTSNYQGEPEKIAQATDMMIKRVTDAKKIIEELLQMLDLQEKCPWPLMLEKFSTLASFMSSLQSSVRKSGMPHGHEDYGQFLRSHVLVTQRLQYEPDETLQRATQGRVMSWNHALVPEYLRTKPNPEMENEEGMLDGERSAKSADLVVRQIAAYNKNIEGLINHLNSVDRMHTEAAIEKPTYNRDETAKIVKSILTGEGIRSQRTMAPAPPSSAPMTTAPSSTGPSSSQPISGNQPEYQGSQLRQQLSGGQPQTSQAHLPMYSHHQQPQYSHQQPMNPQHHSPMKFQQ

Common to all, as to experiment: two-hybrid
For experiment [1], the target named is RPB-5 (yeast two-hybrid fusion) (C. elegans) (UniProt Q9N5K2).
The target of experiment [2] is UAD-2 (yeast two-hybrid fusion) (C. elegans).
Experiment [3] has as its target RPB-5 (yeast two-hybrid fusion) (C. elegans) (UniProt Q9N5K2). This is another data set of the same source.
The target in experiment [4] is MDT-8 (yeast two-hybrid fusion) (C. elegans) (UniProt Q9U1W2).
Experiment [5] addresses UAD-2 (yeast two-hybrid fusion) (C. elegans). The source holds these as a separate data set.

Turning to “MDT-8 (yeast two-hybrid fusion) (from UniProt Q9U1W2 1-297)”, the binding entry in experiment [1] and in experiment [2] was “binds” throughout.

B1: TAF-12 (yeast two-hybrid fusion) (protein, UniProt Q9U226 1-342)
chain: MKMEEFSPPTSPNNHVIVQANPQIAAALSTNSPMQQGIPPQGHQNPNEQQQQQQFVGQPPMGGMGGPMRMQMPQQQIRQMPYPSPQMRAGPPPPQQQQQQHFQQMGIPQQQQPQQFTPNGQSMQMQQRPMQMGMAQGPGPSGHLMGMVGGPPPQHMMQQQGGGGPPQFVPNSSPMPLPPQQIMQVQHQQQHQQPPPSQQIQQPPIPQPQQQQAPPPQMIPAAVPYGSIMEKSKLDDLMQQISSTTVLEENVKDVLVEYADDFVSSLIDKACKMIKNREVKKIESRDIEFILKNVYNMPVVPRAASHNFGSQTEVIDLSKEKFVPTEAHKQRVALLKKQIKKL
Take B1: the binding result in experiment [3], in experiment [4] and in experiment [5] was “binds” throughout.
